No constants are given. Whether binding was seen depends on the method and setting. In cells and extracts the contact can be indirect. Binding calls can cover weak binding; strength is not graded here. Tags and fused reporters may be left off the sequences shown.
Biological target: T1, GST-KCBP (Arabidopsis thaliana) (UniProt Q9FHN8)
T1 sequence: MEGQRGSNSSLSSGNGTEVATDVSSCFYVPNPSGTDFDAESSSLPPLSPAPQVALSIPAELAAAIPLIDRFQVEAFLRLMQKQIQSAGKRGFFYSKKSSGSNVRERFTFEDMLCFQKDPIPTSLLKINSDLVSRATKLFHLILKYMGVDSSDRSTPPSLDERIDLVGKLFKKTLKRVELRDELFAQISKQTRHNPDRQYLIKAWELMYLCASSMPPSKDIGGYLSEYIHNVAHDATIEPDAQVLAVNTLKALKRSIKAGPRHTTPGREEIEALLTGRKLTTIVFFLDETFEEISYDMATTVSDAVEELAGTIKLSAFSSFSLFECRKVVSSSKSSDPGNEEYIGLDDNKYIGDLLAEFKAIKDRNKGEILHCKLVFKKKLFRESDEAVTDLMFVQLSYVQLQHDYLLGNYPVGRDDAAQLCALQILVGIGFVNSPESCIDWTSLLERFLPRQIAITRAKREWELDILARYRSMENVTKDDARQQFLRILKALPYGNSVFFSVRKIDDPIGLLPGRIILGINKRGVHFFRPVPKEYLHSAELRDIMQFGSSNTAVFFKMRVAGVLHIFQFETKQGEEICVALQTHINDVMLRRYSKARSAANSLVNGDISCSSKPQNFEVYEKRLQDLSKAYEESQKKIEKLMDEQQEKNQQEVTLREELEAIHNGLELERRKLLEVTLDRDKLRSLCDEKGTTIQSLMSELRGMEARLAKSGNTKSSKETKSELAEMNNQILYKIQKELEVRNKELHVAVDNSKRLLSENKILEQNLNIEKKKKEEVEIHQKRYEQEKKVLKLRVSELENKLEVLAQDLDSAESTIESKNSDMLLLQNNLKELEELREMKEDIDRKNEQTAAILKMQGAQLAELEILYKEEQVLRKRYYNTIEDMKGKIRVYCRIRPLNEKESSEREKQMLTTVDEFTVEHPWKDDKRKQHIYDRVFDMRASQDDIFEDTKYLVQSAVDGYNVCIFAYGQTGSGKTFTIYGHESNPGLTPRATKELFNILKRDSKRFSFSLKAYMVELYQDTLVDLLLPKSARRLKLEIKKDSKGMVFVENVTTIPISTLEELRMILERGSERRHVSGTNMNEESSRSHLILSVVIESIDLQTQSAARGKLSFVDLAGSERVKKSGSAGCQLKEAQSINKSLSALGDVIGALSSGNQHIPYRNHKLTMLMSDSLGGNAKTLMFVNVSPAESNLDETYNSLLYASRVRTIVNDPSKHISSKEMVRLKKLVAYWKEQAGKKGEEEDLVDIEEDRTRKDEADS
Assay: pull-down; bacterial lysate with ~20 ug GST-KCBP mixed with lysate with ~15 ug MBP-TCS1 or MBP; Glutathione Sepharose 4B, 4 C, 1 h; washed five times with TGH buffer; anti-MBP immunoblot

Chains of the proteins cited; added tags and fusions are not shown. Lines headed by an entry give the natural chain unless they say otherwise; changes in a name come on top.
UniProt Q0WSY2: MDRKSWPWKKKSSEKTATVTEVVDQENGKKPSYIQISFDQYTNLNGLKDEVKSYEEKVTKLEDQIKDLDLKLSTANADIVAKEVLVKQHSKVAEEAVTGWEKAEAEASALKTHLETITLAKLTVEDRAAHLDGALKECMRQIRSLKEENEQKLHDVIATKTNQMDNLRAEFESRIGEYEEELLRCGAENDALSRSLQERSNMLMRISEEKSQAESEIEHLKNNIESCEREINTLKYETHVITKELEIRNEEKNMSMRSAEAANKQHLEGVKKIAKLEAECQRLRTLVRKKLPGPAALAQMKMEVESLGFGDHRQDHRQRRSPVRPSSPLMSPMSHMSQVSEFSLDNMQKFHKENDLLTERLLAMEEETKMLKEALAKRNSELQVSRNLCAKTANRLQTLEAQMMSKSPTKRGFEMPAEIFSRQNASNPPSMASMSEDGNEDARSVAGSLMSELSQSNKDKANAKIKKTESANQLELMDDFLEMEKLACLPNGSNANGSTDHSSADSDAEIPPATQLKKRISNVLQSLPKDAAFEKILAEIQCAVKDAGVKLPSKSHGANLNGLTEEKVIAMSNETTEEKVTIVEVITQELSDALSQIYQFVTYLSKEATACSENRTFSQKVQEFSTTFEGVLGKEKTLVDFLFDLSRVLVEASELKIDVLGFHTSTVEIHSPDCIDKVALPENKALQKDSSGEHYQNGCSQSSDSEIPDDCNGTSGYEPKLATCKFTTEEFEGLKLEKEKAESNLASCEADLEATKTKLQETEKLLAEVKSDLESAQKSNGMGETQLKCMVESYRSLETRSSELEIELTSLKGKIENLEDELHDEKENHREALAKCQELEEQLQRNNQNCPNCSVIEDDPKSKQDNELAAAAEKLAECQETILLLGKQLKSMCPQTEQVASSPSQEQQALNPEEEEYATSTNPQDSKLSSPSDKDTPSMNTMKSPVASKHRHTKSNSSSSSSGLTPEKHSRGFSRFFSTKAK

binding: binds
Substance: MBP-TCS1 (TRICHOME CELL SHAPE 1 fused to maltose binding protein) (from UniProt Q0WSY2)

From article PMC5074588
